The structures appear in SMILES notation. This is one part of the list.

The first assay has as its system SARS-CoV-2 3_SL2 RNA. In words: NMR binding call after quantification (hit when 2 of 3 NMR criteria are met) (binary (1 = binding, 0 = not binding)); higher = binding. The note with it: RNA concentration 10 µM; fragment concentration 200 µM; 293 K.
Take `c1csc(-c2nnc[nH]2)n1`: the NMR binding call was 0. `CC(=O)Nc1ccccc1OCc1ccccc1` returned an NMR binding call of 0. Consider `CN(C)c1ccncc1`, for which the NMR binding call is 0. The molecule `O=C(Cc1ccccc1)N1CCc2ccccc21` showed an NMR binding call of 0. The molecule `O=C1CN(Cc2ccccc2)CC(=O)N1` came in with an NMR binding call of 0. `O=C(NCCc1ccncc1)c1ccccc1F` displayed an NMR binding call of 0.

`O=C(CC1CCCCC1)Nc1cccnc1` yielded an NMR binding call of 0. `Cc1cc2ncn(CC(N)=O)c2cc1C` came in with an NMR binding call of 0. Consider `COc1ccc(C(N)c2ccccc2)cc1.Cl` (stereo not given), for which the NMR binding call was determined as 0. `CC(=O)Nc1ccc(N2CCN(C)CC2)cc1` showed an NMR binding call of 0.

`CC(=O)Nc1ccncc1C` gave an NMR binding call of 0. On the same count and under the same terms, to `COCC(=O)Nc1ccccc1C(N)=O` belongs 0; to `Cc1ccc(C(=O)Nc2nnc[nH]2)cc1C`, 0. On to `N#CCC(=O)Nc1ccc(Cl)cc1`, for which the NMR binding call turned out to be 0. For `Cc1ccc(CNC(=O)C2CCC2)cn1`, the NMR binding call was determined as 0.

In turn, `O=C(NCCc1ccncc1)NC1CCCCC1` returned an NMR binding call of 0. On to `CCOc1ccc(C(=O)Nc2cc(C)on2)cc1`, for which the NMR binding call is 0. Same read-out and setting: in the case of `Cc1nc2ccccc2n1CCC(N)=O` it was 0; in that of `CCN(CC)S(=O)(=O)c1ccc(C)cc1`, 0.

The molecule `Cl.NC1CCN(S(=O)(=O)c2ccccc2)C1` (stereo not given) had an NMR binding call of 0. As for `CNS(=O)(=O)c1ccccc1Cl`, the NMR binding call was 0.

Turning to `COC(=O)C1CC(O)CN1C(=O)c1ccco1` (stereo not given), the NMR binding call was 0. The molecule `CC(C)C(=O)NCc1nc2ccccc2[nH]1` registered an NMR binding call of 0. Molecule `O=C(Nc1ccc(F)cc1)Nc1cccc(O)c1` had an NMR binding call of 0. The molecule `Cc1cccc(C(=O)Nc2ccc(C)cc2O)c1` registered an NMR binding call of 0. Consider `FC(F)(F)c1ccc(CN2CCOCC2)cc1`, for which the NMR binding call came to 0.

`CC(O)CNC(=O)Nc1ccccc1` (stereo not given): the NMR binding call was 0. Molecule `CC(C)Nc1nc2ccccc2[nH]1` showed an NMR binding call of 0. For the molecule `Nc1ncncc1-c1ccc(Cl)cc1`, the NMR binding call came to 0.

The molecule `CC(C)N(C)c1ncnc2c1cnn2C` returned an NMR binding call of 0.

The next assay relates to SARS-CoV-2 3_SL3base RNA. Described as above. The following applies: RNA concentration 10 µM; fragment concentration 200 µM; 293 K.
`c1csc(-c2nnc[nH]2)n1` came in with an NMR binding call of 0. Take `CC(=O)Nc1ccccc1OCc1ccccc1`: the NMR binding call stood at 0. Molecule `Cc1ccc(-c2nc(N)sc2C)cc1C` returned an NMR binding call of 0.

`CN(C)c1ccncc1` yielded an NMR binding call of 0.

`O=C(Cc1ccccc1)N1CCc2ccccc21`: the NMR binding call was determined as 0.

The molecule `O=C1CN(Cc2ccccc2)CC(=O)N1` came in with an NMR binding call of 0.

The molecule `O=C(NCCc1ccncc1)c1ccccc1F` had an NMR binding call of 0.

`O=C(CC1CCCCC1)Nc1cccnc1` displayed an NMR binding call of 0. As to `Cc1cc2ncn(CC(N)=O)c2cc1C`, the NMR binding call turned out to be 0. Same read-out and setting: to `COc1ccc(C(N)c2ccccc2)cc1.Cl` (stereo not given) belongs 0. Consider `CC(=O)Nc1ccc(N2CCN(C)CC2)cc1`, for which the NMR binding call is 0. The molecule `CCCc1cc(=O)oc2cc(OC(C)=O)ccc12` displayed an NMR binding call of 0. On to `CC(=O)Nc1ccncc1C`, for which the NMR binding call came out at 0.

`CC(=O)Nc1cc(C(=O)O)ccc1F` returned an NMR binding call of 0. On to `COCC(=O)Nc1ccccc1C(N)=O`, for which the NMR binding call is 0. `COC(=O)c1ccccc1NC(=O)N1CCCC1` had an NMR binding call of 0.

`Cc1ccc(C(=O)Nc2nnc[nH]2)cc1C`: the NMR binding call stood at 0. The same measure, in the same setting: in the case of `NCc1ccccc1OC(F)(F)F` it was 0. `N#CCC(=O)Nc1ccc(Cl)cc1` showed an NMR binding call of 0. `O=C(NCCc1ccncc1)NC1CCCCC1` displayed an NMR binding call of 0. Take `CCOc1ccc(C(=O)Nc2cc(C)on2)cc1`: the NMR binding call is 0. `Cc1nc2ccccc2n1CCC(N)=O` came in with an NMR binding call of 0.

Consider `CCN(CC)S(=O)(=O)c1ccc(C)cc1`, for which the NMR binding call worked out at 0. `Cl.NC1CCN(S(=O)(=O)c2ccccc2)C1` (stereo not given) yielded an NMR binding call of 0. As to `CNS(=O)(=O)c1ccccc1Cl`, the NMR binding call worked out at 0. Regarding `COC(=O)C1CC(O)CN1C(=O)c1ccco1` (stereo not given), the NMR binding call came out at 0. Same read-out and setting: to `CC(C)C(=O)NCc1nc2ccccc2[nH]1` belongs 0. With `O=C(Nc1ccc(F)cc1)Nc1cccc(O)c1`, the NMR binding call was 0. The molecule `Cc1cccc(C(=O)Nc2ccc(C)cc2O)c1` displayed an NMR binding call of 0. The same measure, in the same setting: in the case of `FC(F)(F)c1ccc(CN2CCOCC2)cc1` it was 0. The same measure, in the same setting: in the case of `CC(O)CNC(=O)Nc1ccccc1` (stereo not given) it was 0.

Turning to `CCCC(=O)Nc1cccnc1Cl`, the NMR binding call came out at 0. On the same count and under the same terms, in the case of `CC(C)Nc1nc2ccccc2[nH]1` it was 0; in that of `Nc1ncncc1-c1ccc(Cl)cc1`, 0. In turn, `NC(=O)C1CCCn2ccnc21` (stereo not given) registered an NMR binding call of 0.

(Values after the supplement of paper PMC8426693.)
